Structures can show the parent of a compound that is named as a salt. The list shows a part of the results. The calls rarely recur for the same compound in another form.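 Kinases, fused to nanoluciferase, were expressed in K562 cells; luminescence was measured every 4 h from 2 to 18 h as percent of control (DMSO = 100%, positive control = 0%). A time point is decreased if signal falls significantly (2 sigma). Hits were called by the authors by a rule that is not shown; the count of time points alone does not decide it.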
Tests used:
Assay in all cases: kinase-Nluc reporter destabilization hit call (1 = scored as downregulated) (binary); higher = compound decreases kinase abundance
Conditions in all cases: K562, 2-18 h
[1] = molecular target: ERN1 (UniProt O75460)
[2] = molecular target: FGFR1 (UniProt P11362)
[3] = molecular target: FGFR2 (UniProt P21802)
[4] = molecular target: FGFR3 (UniProt P22607)
[5] = molecular target: FGR (UniProt P09769)
[6] = molecular target: FLT3 (UniProt P36888)
[7] = molecular target: FYN (UniProt P06241)
[8] = molecular target: GSK3A (UniProt P49840)
[9] = molecular target: HER2 (UniProt P04626)
[10] = molecular target: INSRR (UniProt P14616)
[11] = molecular target: IRAK3 (UniProt Q9Y616)
[12] = molecular target: JAK1 (UniProt P23458)
[13] = molecular target: LCK (UniProt P06239)
[14] = molecular target: LIMK1 (UniProt P53667)
[15] = molecular target: LIMK2 (UniProt P53671)
[16] = molecular target: LMTK2 (UniProt Q8IWU2)
[17] = molecular target: LYN (UniProt P07948)
[18] = molecular target: MAP2K1 (UniProt Q02750)
[19] = molecular target: MAP2K2 (UniProt P36507)
[20] = molecular target: MAP4K2 (UniProt Q12851)

Amino acid sequences for entries named in this document (tags omitted). A change or cut given only in a name is not applied to a line headed by its entry.
UniProt O75460: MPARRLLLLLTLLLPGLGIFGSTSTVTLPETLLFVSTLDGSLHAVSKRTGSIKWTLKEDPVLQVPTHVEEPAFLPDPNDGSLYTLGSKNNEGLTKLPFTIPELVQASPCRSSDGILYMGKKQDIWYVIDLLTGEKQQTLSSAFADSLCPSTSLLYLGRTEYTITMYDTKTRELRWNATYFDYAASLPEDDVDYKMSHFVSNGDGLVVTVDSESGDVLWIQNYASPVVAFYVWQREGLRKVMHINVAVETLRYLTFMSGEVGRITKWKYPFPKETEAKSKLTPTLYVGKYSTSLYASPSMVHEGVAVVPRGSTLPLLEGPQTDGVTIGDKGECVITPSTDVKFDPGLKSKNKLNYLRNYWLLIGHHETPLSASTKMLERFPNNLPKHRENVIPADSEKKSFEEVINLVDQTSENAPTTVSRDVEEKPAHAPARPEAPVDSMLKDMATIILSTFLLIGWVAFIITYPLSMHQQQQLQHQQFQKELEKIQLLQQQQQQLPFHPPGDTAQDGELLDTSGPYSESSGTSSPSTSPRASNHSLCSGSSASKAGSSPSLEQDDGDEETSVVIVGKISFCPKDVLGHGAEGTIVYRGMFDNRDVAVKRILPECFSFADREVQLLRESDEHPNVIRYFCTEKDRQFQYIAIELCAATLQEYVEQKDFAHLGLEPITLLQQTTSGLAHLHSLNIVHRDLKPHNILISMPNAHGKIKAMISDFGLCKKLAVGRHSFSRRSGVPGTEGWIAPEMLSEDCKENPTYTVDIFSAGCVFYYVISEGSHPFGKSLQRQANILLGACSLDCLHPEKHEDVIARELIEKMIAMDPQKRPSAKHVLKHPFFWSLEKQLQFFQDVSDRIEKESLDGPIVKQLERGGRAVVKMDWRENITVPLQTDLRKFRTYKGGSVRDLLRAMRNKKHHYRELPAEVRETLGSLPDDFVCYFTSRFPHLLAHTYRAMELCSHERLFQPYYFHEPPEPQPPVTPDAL
UniProt P23458: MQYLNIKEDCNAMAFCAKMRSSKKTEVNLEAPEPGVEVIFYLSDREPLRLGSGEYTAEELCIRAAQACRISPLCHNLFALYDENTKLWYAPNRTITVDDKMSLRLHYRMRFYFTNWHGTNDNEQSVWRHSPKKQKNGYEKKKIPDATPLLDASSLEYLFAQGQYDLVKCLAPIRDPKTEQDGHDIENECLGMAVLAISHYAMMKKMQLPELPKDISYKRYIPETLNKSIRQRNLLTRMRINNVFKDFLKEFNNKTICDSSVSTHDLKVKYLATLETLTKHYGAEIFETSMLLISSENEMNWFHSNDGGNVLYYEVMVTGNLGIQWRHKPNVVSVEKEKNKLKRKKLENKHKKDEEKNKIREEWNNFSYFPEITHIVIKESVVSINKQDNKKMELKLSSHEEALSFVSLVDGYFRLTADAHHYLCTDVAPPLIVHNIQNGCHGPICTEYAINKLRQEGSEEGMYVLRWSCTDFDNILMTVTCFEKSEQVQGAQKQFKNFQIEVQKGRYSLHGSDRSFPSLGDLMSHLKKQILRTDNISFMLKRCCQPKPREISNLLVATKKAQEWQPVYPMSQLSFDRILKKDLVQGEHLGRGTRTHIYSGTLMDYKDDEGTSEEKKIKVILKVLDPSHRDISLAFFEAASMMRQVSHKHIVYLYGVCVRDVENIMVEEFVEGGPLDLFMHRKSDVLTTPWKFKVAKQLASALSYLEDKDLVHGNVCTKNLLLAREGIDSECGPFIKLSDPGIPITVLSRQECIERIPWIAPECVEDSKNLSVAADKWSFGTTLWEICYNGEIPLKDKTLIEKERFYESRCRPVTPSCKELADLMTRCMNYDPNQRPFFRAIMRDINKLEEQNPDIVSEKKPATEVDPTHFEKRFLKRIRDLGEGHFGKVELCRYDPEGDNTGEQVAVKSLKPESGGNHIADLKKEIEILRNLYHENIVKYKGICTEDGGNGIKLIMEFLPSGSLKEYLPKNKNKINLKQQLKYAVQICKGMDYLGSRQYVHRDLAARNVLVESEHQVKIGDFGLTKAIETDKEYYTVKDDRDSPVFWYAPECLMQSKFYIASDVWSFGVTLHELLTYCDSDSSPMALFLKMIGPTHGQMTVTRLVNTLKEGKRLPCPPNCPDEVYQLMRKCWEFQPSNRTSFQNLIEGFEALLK
UniProt P53667: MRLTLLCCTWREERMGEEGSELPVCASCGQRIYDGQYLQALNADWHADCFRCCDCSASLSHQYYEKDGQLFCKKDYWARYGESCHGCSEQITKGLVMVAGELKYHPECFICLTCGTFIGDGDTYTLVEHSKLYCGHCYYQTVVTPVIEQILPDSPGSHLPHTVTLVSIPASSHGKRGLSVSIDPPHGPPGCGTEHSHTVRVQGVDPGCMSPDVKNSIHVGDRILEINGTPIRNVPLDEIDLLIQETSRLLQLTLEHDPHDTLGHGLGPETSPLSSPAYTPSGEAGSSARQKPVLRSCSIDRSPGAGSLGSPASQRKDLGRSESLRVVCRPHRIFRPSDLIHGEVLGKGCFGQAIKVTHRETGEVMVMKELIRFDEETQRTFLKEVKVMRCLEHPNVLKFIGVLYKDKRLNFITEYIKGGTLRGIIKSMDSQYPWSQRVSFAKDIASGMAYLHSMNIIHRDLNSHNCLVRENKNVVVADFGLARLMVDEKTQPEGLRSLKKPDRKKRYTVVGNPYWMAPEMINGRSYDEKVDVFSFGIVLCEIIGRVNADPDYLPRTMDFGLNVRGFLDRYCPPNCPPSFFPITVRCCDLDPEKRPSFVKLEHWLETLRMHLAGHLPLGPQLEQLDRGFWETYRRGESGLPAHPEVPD
UniProt P53671: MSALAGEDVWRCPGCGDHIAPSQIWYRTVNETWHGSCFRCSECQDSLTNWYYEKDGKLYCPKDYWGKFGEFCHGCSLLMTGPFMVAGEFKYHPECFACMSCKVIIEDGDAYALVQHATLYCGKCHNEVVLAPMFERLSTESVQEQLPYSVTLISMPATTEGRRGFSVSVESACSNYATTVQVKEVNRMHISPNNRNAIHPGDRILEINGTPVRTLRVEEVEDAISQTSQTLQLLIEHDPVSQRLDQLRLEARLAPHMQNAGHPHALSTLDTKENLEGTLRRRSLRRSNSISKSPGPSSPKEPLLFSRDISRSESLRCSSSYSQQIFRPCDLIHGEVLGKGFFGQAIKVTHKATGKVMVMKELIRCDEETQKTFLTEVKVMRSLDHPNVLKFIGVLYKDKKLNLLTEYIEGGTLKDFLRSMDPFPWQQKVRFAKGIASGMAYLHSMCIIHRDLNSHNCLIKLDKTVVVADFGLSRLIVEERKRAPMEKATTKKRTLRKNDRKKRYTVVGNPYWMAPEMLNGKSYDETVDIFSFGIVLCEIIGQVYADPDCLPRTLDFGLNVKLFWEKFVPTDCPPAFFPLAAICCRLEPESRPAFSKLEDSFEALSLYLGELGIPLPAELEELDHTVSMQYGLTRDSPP
UniProt Q8IWU2: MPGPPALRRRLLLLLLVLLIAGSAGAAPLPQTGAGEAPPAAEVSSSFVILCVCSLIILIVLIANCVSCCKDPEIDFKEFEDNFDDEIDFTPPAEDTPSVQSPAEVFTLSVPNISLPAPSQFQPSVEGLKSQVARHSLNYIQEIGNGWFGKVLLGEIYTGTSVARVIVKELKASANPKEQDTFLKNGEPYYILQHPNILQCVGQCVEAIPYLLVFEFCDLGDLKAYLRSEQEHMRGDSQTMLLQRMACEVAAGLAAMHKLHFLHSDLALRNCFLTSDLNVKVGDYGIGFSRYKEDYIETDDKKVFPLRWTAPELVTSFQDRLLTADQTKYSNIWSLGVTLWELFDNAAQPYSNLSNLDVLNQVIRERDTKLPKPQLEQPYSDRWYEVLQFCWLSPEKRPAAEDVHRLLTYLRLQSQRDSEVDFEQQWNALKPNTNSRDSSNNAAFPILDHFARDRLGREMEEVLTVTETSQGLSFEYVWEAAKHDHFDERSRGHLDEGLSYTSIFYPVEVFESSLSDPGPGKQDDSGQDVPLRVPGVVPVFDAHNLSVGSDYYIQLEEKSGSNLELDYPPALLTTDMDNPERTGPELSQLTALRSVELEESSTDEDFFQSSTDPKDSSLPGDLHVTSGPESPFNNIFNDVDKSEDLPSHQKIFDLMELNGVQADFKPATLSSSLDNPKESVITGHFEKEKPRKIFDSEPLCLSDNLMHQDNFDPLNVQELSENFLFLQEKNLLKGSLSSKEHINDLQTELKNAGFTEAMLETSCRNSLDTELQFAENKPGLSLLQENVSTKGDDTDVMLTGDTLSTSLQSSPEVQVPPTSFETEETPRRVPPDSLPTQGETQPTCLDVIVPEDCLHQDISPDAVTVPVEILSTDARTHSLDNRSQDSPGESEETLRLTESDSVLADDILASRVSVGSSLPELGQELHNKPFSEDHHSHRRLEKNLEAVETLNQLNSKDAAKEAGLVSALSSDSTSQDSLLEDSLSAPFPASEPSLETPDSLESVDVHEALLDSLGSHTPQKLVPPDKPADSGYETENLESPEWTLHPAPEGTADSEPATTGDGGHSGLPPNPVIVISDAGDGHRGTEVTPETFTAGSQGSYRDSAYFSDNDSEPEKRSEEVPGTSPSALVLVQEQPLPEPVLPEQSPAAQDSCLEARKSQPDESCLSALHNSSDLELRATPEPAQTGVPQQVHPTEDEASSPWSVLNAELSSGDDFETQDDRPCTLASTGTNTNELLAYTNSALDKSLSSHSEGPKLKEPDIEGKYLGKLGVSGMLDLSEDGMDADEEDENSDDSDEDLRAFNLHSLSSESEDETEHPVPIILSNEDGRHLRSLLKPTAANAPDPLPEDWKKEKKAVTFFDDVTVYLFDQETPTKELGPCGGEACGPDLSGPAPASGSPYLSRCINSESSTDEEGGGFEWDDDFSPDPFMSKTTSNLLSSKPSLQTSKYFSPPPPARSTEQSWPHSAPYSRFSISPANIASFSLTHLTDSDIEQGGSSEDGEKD
UniProt P07948: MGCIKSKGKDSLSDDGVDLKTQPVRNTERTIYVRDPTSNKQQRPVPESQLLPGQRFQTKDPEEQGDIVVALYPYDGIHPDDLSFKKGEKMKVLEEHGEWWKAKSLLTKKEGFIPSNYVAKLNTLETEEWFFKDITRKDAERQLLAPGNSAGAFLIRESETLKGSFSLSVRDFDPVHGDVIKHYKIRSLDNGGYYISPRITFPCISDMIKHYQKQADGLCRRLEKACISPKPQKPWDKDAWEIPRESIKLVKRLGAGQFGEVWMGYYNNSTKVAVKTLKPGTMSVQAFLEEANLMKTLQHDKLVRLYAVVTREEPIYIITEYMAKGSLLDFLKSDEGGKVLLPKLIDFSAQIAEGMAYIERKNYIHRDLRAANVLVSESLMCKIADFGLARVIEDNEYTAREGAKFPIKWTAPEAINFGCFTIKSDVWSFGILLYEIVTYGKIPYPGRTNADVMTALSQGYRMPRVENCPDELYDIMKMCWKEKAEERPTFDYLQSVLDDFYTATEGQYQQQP
UniProt Q12851: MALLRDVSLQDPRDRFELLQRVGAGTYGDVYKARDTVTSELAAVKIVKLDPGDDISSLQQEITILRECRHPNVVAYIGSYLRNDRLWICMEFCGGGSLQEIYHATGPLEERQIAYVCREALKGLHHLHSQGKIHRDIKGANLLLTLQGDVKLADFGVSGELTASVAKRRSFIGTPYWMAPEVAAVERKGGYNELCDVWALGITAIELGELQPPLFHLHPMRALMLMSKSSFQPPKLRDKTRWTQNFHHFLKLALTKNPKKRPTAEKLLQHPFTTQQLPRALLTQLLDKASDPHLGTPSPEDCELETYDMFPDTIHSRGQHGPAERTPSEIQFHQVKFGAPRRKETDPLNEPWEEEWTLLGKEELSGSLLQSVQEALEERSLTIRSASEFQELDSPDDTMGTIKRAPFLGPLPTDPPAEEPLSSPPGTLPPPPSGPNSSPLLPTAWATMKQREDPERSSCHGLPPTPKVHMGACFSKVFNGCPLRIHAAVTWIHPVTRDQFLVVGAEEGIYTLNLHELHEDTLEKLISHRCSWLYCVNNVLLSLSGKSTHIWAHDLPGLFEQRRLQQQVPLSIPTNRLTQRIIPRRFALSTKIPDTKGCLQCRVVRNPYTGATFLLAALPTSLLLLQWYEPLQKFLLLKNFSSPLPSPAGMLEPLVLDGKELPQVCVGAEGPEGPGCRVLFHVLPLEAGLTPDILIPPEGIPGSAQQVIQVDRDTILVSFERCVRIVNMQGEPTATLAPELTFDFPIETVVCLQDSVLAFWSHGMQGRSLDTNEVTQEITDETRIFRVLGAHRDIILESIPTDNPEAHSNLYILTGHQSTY

Row | Structure (SMILES) | kinase-Nluc reporter destabilization hit call ([1]; 10 µM) | kinase-Nluc reporter destabilization hit call ([2]; 10 µM) | kinase-Nluc reporter destabilization hit call ([3]; 10 µM) | kinase-Nluc reporter destabilization hit call ([4]; 10 µM) | kinase-Nluc reporter destabilization hit call ([5]; 10 µM) | kinase-Nluc reporter destabilization hit call ([6]; 10 µM) | kinase-Nluc reporter destabilization hit call ([7]; 10 µM) | kinase-Nluc reporter destabilization hit call ([8]; 10 µM) | kinase-Nluc reporter destabilization hit call ([9]; 10 µM) | kinase-Nluc reporter destabilization hit call ([10]; 10 µM) | kinase-Nluc reporter destabilization hit call ([11]; 10 µM) | kinase-Nluc reporter destabilization hit call ([12]; 10 µM) | kinase-Nluc reporter destabilization hit call ([13]; 10 µM) | kinase-Nluc reporter destabilization hit call ([14]; 10 µM) | kinase-Nluc reporter destabilization hit call ([15]; 10 µM) | kinase-Nluc reporter destabilization hit call ([16]; 10 µM) | kinase-Nluc reporter destabilization hit call ([17]; 10 µM) | kinase-Nluc reporter destabilization hit call ([18]; 10 µM) | kinase-Nluc reporter destabilization hit call ([19]; 10 µM) | kinase-Nluc reporter destabilization hit call ([20]; 10 µM) | kinase-Nluc reporter destabilization hit call ([1]; 2.5 µM) | kinase-Nluc reporter destabilization hit call ([2]; 2.5 µM) | kinase-Nluc reporter destabilization hit call ([3]; 2.5 µM) | kinase-Nluc reporter destabilization hit call ([4]; 2.5 µM) | kinase-Nluc reporter destabilization hit call ([5]; 2.5 µM) | kinase-Nluc reporter destabilization hit call ([6]; 2.5 µM) | kinase-Nluc reporter destabilization hit call ([7]; 2.5 µM) | kinase-Nluc reporter destabilization hit call ([8]; 2.5 µM) | kinase-Nluc reporter destabilization hit call ([9]; 2.5 µM) | kinase-Nluc reporter destabilization hit call ([10]; 2.5 µM) | kinase-Nluc reporter destabilization hit call ([11]; 2.5 µM) | kinase-Nluc reporter destabilization hit call ([12]; 2.5 µM) | kinase-Nluc reporter destabilization hit call ([13]; 2.5 µM) | kinase-Nluc reporter destabilization hit call ([14]; 2.5 µM) | kinase-Nluc reporter destabilization hit call ([15]; 2.5 µM) | kinase-Nluc reporter destabilization hit call ([16]; 2.5 µM) | kinase-Nluc reporter destabilization hit call ([17]; 2.5 µM) | kinase-Nluc reporter destabilization hit call ([18]; 2.5 µM) | kinase-Nluc reporter destabilization hit call ([19]; 2.5 µM) | kinase-Nluc reporter destabilization hit call ([20]; 2.5 µM)
1 | Nc1cncc(-c2cn3ccnc3c(Nc3ccc(N4CCN(C5COC5)CC4)cc3)n2)n1 [Lanraplenib] | inactive: 0 | inactive: 0 | inactive: 0 | inactive: 0 | inactive: 0 | inactive: 0 | inactive: 0 | inactive: 0 | inactive: 0 | inactive: 0 | inactive: 0 | inactive: 0 | inactive: 0 | inactive: 0 | inactive: 0 | inactive: 0 | inactive: 0 | inactive: 0 | inactive: 0 | inactive: 0 | – | – | – | – | – | – | – | – | – | – | – | – | – | – | – | – | – | – | – | –
2 | COc1cc2nccc(Oc3ccc(NC(=O)C4(C(=O)Nc5ccc(F)cc5)CC4)cc3)c2cc1OC [Cabozantinib] | – | – | – | – | – | – | – | – | – | – | – | – | – | – | – | – | – | – | – | – | inactive: 0 | inactive: 0 | inactive: 0 | inactive: 0 | inactive: 0 | inactive: 0 | inactive: 0 | inactive: 0 | inactive: 0 | inactive: 0 | inactive: 0 | inactive: 0 | inactive: 0 | inactive: 0 | inactive: 0 | inactive: 0 | inactive: 0 | inactive: 0 | inactive: 0 | inactive: 0
3 | Cc1ccc(NC(=O)c2ccc(CN3CCN(C)CC3)cc2)cc1Nc1nc(-c2cccnc2)cs1 [Masitinib] | – | – | – | – | – | – | – | – | – | – | – | – | – | – | – | – | – | – | – | – | inactive: 0 | inactive: 0 | inactive: 0 | inactive: 0 | inactive: 0 | inactive: 0 | inactive: 0 | inactive: 0 | inactive: 0 | inactive: 0 | inactive: 0 | inactive: 0 | inactive: 0 | inactive: 0 | inactive: 0 | inactive: 0 | inactive: 0 | inactive: 0 | inactive: 0 | inactive: 0
4 | C#Cc1cccc(Nc2ncnc3cc(OCCOC)c(OCCO)cc23)c1 [Desmethyl Erlotinib (hydrochloride)] | inactive: 0 | inactive: 0 | inactive: 0 | inactive: 0 | inactive: 0 | inactive: 0 | inactive: 0 | inactive: 0 | active: 1 | inactive: 0 | inactive: 0 | inactive: 0 | inactive: 0 | inactive: 0 | inactive: 0 | inactive: 0 | inactive: 0 | inactive: 0 | inactive: 0 | inactive: 0 | – | – | – | – | – | – | – | – | – | – | – | – | – | – | – | – | – | – | – | –
5 | c1cc(-c2cnn3cc(-c4ccc(OCCN5CCCCC5)cc4)cnc23)ccn1 [Dorsomorphin (dihydrochloride)] | – | – | – | – | – | – | – | – | – | – | – | – | – | – | – | – | – | – | – | – | inactive: 0 | inactive: 0 | inactive: 0 | inactive: 0 | inactive: 0 | inactive: 0 | inactive: 0 | inactive: 0 | inactive: 0 | inactive: 0 | inactive: 0 | inactive: 0 | inactive: 0 | inactive: 0 | inactive: 0 | inactive: 0 | inactive: 0 | inactive: 0 | inactive: 0 | inactive: 0
6 | Oc1cccc(-c2nc(N3CCOCC3)c3oc4ncccc4c3n2)c1 | inactive: 0 | inactive: 0 | inactive: 0 | inactive: 0 | inactive: 0 | inactive: 0 | inactive: 0 | inactive: 0 | inactive: 0 | inactive: 0 | inactive: 0 | inactive: 0 | inactive: 0 | inactive: 0 | inactive: 0 | inactive: 0 | inactive: 0 | inactive: 0 | inactive: 0 | inactive: 0 | – | – | – | – | – | – | – | – | – | – | – | – | – | – | – | – | – | – | – | –
7 | COc1ncc(F)cc1CNc1ccc(Cc2c[nH]c3ncc(C)cc23)c(F)n1 | inactive: 0 | inactive: 0 | inactive: 0 | inactive: 0 | inactive: 0 | inactive: 0 | inactive: 0 | inactive: 0 | inactive: 0 | inactive: 0 | inactive: 0 | inactive: 0 | inactive: 0 | inactive: 0 | inactive: 0 | inactive: 0 | inactive: 0 | inactive: 0 | inactive: 0 | inactive: 0 | – | – | – | – | – | – | – | – | – | – | – | – | – | – | – | – | – | – | – | –
8 | COC(=O)[C@H](CC(C)C)NC(=O)c1ccc(NC[C@@H](N)CS)cc1-c1cccc2ccccc12 [GGTI298 (Trifluoroacetate)] | inactive: 0 | inactive: 0 | inactive: 0 | inactive: 0 | inactive: 0 | inactive: 0 | inactive: 0 | inactive: 0 | inactive: 0 | inactive: 0 | inactive: 0 | inactive: 0 | inactive: 0 | inactive: 0 | inactive: 0 | inactive: 0 | inactive: 0 | inactive: 0 | inactive: 0 | inactive: 0 | – | – | – | – | – | – | – | – | – | – | – | – | – | – | – | – | – | – | – | –
9 | N#CCNC(=O)c1ccc(-c2ccnc(Nc3ccc(N4CCOCC4)cc3)n2)cc1 [Momelotinib] | inactive: 0 | inactive: 0 | inactive: 0 | inactive: 0 | inactive: 0 | inactive: 0 | inactive: 0 | inactive: 0 | inactive: 0 | inactive: 0 | inactive: 0 | inactive: 0 | inactive: 0 | inactive: 0 | inactive: 0 | inactive: 0 | inactive: 0 | inactive: 0 | inactive: 0 | inactive: 0 | – | – | – | – | – | – | – | – | – | – | – | – | – | – | – | – | – | – | – | –

One compound at a time, as listed above. Values in the order: kinase-Nluc reporter destabilization hit call ([1]; 10 µM) | kinase-Nluc reporter destabilization hit call ([2]; 10 µM) | kinase-Nluc reporter destabilization hit call ([3]; 10 µM) | kinase-Nluc reporter destabilization hit call ([4]; 10 µM) | kinase-Nluc reporter destabilization hit call ([5]; 10 µM) | kinase-Nluc reporter destabilization hit call ([6]; 10 µM) | kinase-Nluc reporter destabilization hit call ([7]; 10 µM) | kinase-Nluc reporter destabilization hit call ([8]; 10 µM) | kinase-Nluc reporter destabilization hit call ([9]; 10 µM) | kinase-Nluc reporter destabilization hit call ([10]; 10 µM) | kinase-Nluc reporter destabilization hit call ([11]; 10 µM) | kinase-Nluc reporter destabilization hit call ([12]; 10 µM) | kinase-Nluc reporter destabilization hit call ([13]; 10 µM) | kinase-Nluc reporter destabilization hit call ([14]; 10 µM) | kinase-Nluc reporter destabilization hit call ([15]; 10 µM) | kinase-Nluc reporter destabilization hit call ([16]; 10 µM) | kinase-Nluc reporter destabilization hit call ([17]; 10 µM) | kinase-Nluc reporter destabilization hit call ([18]; 10 µM) | kinase-Nluc reporter destabilization hit call ([19]; 10 µM) | kinase-Nluc reporter destabilization hit call ([20]; 10 µM) | kinase-Nluc reporter destabilization hit call ([1]; 2.5 µM) | kinase-Nluc reporter destabilization hit call ([2]; 2.5 µM) | kinase-Nluc reporter destabilization hit call ([3]; 2.5 µM) | kinase-Nluc reporter destabilization hit call ([4]; 2.5 µM) | kinase-Nluc reporter destabilization hit call ([5]; 2.5 µM) | kinase-Nluc reporter destabilization hit call ([6]; 2.5 µM) | kinase-Nluc reporter destabilization hit call ([7]; 2.5 µM) | kinase-Nluc reporter destabilization hit call ([8]; 2.5 µM) | kinase-Nluc reporter destabilization hit call ([9]; 2.5 µM) | kinase-Nluc reporter destabilization hit call ([10]; 2.5 µM) | kinase-Nluc reporter destabilization hit call ([11]; 2.5 µM) | kinase-Nluc reporter destabilization hit call ([12]; 2.5 µM) | kinase-Nluc reporter destabilization hit call ([13]; 2.5 µM) | kinase-Nluc reporter destabilization hit call ([14]; 2.5 µM) | kinase-Nluc reporter destabilization hit call ([15]; 2.5 µM) | kinase-Nluc reporter destabilization hit call ([16]; 2.5 µM) | kinase-Nluc reporter destabilization hit call ([17]; 2.5 µM) | kinase-Nluc reporter destabilization hit call ([18]; 2.5 µM) | kinase-Nluc reporter destabilization hit call ([19]; 2.5 µM) | kinase-Nluc reporter destabilization hit call ([20]; 2.5 µM)
Nc1cncc(-c2cn3ccnc3c(Nc3ccc(N4CCN(C5COC5)CC4)cc3)n2)n1 [Lanraplenib] is entered as inactive: 0 | inactive: 0 | inactive: 0 | inactive: 0 | inactive: 0 | inactive: 0 | inactive: 0 | inactive: 0 | inactive: 0 | inactive: 0 | inactive: 0 | inactive: 0 | inactive: 0 | inactive: 0 | inactive: 0 | inactive: 0 | inactive: 0 | inactive: 0 | inactive: 0 | inactive: 0 | – | – | – | – | – | – | – | – | – | – | – | – | – | – | – | – | – | – | – | –
COC(=O)[C@H](CC(C)C)NC(=O)c1ccc(NC[C@@H](N)CS)cc1-c1cccc2ccccc12 [GGTI298 (Trifluoroacetate)] is entered as inactive: 0 | inactive: 0 | inactive: 0 | inactive: 0 | inactive: 0 | inactive: 0 | inactive: 0 | inactive: 0 | inactive: 0 | inactive: 0 | inactive: 0 | inactive: 0 | inactive: 0 | inactive: 0 | inactive: 0 | inactive: 0 | inactive: 0 | inactive: 0 | inactive: 0 | inactive: 0 | – | – | – | – | – | – | – | – | – | – | – | – | – | – | – | – | – | – | – | –

From the supplement of paper PMC12823440, “Inhibitors supercharge kinase turnover through native proteolytic circuits” (Nature, 2025)
